These results are taken from publication PMC10353116.

The chains behind the UniProt entries cited, without tags or fusion partners. Residues count along the entry.
UniProt Q9H6L5: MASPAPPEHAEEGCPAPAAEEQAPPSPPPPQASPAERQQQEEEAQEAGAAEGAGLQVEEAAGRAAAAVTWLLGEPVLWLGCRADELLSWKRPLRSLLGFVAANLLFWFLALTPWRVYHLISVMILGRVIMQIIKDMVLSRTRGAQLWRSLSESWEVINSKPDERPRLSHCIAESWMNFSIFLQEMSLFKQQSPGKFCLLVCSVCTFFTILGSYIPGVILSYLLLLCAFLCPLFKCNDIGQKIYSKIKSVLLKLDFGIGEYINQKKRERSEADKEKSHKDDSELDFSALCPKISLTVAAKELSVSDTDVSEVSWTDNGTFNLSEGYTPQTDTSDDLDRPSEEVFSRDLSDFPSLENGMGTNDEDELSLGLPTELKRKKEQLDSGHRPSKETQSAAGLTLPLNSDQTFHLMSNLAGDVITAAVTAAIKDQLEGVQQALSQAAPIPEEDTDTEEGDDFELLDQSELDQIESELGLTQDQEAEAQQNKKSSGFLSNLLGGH
UniProt P36888, residues 27-993: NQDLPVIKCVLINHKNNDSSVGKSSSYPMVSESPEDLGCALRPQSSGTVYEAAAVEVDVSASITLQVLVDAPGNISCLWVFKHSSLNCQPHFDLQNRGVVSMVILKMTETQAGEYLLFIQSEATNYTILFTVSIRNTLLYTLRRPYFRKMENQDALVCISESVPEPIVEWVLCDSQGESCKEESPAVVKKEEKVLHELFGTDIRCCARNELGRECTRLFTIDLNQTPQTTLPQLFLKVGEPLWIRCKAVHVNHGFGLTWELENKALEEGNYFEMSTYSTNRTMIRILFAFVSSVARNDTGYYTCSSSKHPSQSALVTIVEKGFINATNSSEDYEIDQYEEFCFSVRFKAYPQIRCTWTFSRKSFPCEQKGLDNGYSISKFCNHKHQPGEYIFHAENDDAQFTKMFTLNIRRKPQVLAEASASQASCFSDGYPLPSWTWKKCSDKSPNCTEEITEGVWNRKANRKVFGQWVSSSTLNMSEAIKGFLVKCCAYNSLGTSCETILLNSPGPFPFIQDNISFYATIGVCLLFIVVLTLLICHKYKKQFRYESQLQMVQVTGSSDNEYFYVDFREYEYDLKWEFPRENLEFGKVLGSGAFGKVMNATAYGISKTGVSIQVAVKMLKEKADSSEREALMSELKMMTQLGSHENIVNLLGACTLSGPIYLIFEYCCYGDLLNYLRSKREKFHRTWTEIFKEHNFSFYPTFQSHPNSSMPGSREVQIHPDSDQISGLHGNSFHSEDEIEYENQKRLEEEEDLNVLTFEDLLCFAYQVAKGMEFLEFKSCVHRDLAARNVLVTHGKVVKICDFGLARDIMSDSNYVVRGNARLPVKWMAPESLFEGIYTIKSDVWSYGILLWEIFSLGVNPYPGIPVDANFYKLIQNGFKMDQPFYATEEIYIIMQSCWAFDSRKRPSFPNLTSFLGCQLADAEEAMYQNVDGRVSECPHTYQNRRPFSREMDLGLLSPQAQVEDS

No constants are given. Whether binding was seen depends on the method and setting. In cells and extracts the contact can be indirect. These calls come from enrichment with a bait or labelling near it, and not all partners need be listed.

The assay has as its target Family with sequence similarity 134 member B (FAM134B) (human) (UniProt Q9H6L5). The assay can be described thus: affinity purification with mass spectrometry; immunoprecipitation of FAM134B, Coomassie-stained gel, MS sequencing; cells and conditions not stated.

For the substance “FMS related receptor tyrosine kinase 3 (FLT3) (from UniProt P36888 27-993)”, the binding result is recorded as “binds”.
